Results deposited as PubChem BioAssay AID1259424 (University of Nebraska Medical Center, 2018).
Assay: 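Rank knockdowns across the genome by resemblance to the KSR1 depletion profile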 (primary screen). Cell system: human HCT116 colon cancer cells. Knock-down reagent: siRNA pool against human genes, 50 nM. Measurement: 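Log2 levels of six mRNAs (branched-DNA multiplex), adjusted by two reference genes and the non-targeting median, then scored against the average KSR1 knockdown pattern as Pearson r and euclidean distance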. Scale: mean correlation with KSR1 profile and KSR1 correlation: higher = expression change more like KSR1 knockdown; mean distance from KSR1 profile: higher = expression change less like KSR1 knockdown.
In all, the deposit lists about 14,000 reagents; below is a part drawn at random. 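Higher correlation or smaller distance means closer resemblance to KSR1 loss; control wells, including KSR1 knockdowns, recur on many plates.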 Some reagents were tested in more than one well and are listed for each. No sequences are given here. Not given: the time to read-out.

no.	gene symbol	PubChem SID	mean correlation with KSR1 profile	mean distance from KSR1 profile	KSR1 correlation, replicate 1	KSR1 correlation, replicate 2	KSR1 correlation, replicate 3
1	CARD19 (caspase recruitment domain family member 19)	SID364003896	0.373	1.3	0.0693	0.307	0.323
2	TPSD1 (tryptase delta 1)	SID363998149	-0.615	1.87	-0.556	-0.646	-0.436
3	KCNJ11 (potassium inwardly rectifying channel subfamily J member 11)	SID363991848	0.189	1.38	0.224	0.307	0.211
4	PIM1 (Pim-1 proto-oncogene, serine/threonine kinase)	SID363993816	0.481	2.03	0.468	0.627	0.416
5	WT1-AS (WT1 antisense RNA)	SID363999681	0.575	3.19	0.686	0.0153	0.496
6	SZT2 (SZT2 subunit of KICSTOR complex)	SID363999396	-0.249	2.5	-0.215	-0.382	-0.0545
7	TBC1D3F (TBC1 domain family member 3F)	SID364003853	0.655	1.44	0.529	0.616	0.837
8	PLPP1 (phospholipid phosphatase 1)	SID363994780	0.441	2.56	0.644	0.236	0.439
9	PDIA6 (protein disulfide isomerase family A member 6)	SID363996627	0.0727	2.91	0.487	-0.543	0.354
10	ODAD2 (outer dynein arm docking complex subunit 2)	SID364000761	-0.458	1.78	-0.567	-0.356	-0.465
11	SIGLEC7 (sialic acid binding Ig like lectin 7)	SID363998807	-0.199	1.37	-0.477	-0.595	-0.267
12	IFIH1 (interferon induced with helicase C domain 1)	SID364002391	-0.517	1.98	-0.512	-0.521	-0.297
13	B3GNT4	SID364003419	0.389	1.83	0.452	0.368	0.442
14	PRKAG1 (protein kinase AMP-activated non-catalytic subunit gamma 1)	SID363993891	0.819	1.04	0.948	0.737	0.661
15	MRM3 (mitochondrial rRNA methyltransferase 3)	SID364000822	-0.431	1.91	-0.524	-0.71	-0.235
16	MLH1 (mutL homolog 1)	SID363991582	0.174	1.68	-0.187	0.179	0.24
17	FCSK (fucose kinase)	SID364004643	0.258	4.15	0.00654	0.292	0.196
18	SAP30 (Sin3A associated protein 30)	SID363994924	0.149	2.17	0.232	0.375	0.232
19	SLC35A5	SID364000664	-0.0966	3.91	0.0808	-0.216	-0.242
20	CYSLTR2 (cysteinyl leukotriene receptor 2)	SID364001644	0.816	1.99	0.809	0.849	0.717
21	SORL1 (sortilin related receptor 1)	SID363994247	-0.207	4.18	-0.125	-0.303	-0.289
22	ZMYM4 (zinc finger MYM-type containing 4)	SID363996031	0.143	1.53	0.347	-0.0186	0.342
23	C1orf116 (chromosome 1 open reading frame 116)	SID364002663	-0.726	2.17	-0.641	-0.792	-0.672
24	C1orf116 (chromosome 1 open reading frame 116)	SID364002663	-0.00542	3.24	-0.0168	-0.23	0.0633
25	KLC3 (kinesin light chain 3)	SID364004895	-0.612	3.18	-0.531	-0.66	-0.638
26	DHX9 (DExH-box helicase 9)	SID363992634	0.179	1.82	0.241	0.26	-0.155
27	IFITM2 (interferon induced transmembrane protein 2)	SID363997246	-0.199	1.51	-0.445	-0.316	-0.237
28	RPL24 (ribosomal protein L24)	SID363992269	-0.549	1.96	-0.711	-0.472	-0.319
29	RAB11FIP4 (RAB11 family interacting protein 4)	SID364004276	0.0693	2.3	-0.0424	0.202	-0.15
30	SLC16A3	SID363995207	-0.163	2.4	0.0295	-0.113	-0.309
31	SNRNP40 (small nuclear ribonucleoprotein U5 subunit 40)	SID363995767	-0.304	1.97	-0.141	-0.322	-0.215
32	OTX2 (orthodenticle homeobox 2)	SID364002171	0.159	0.997	0.357	0.859	-0.937
33	JMJD6	SID363999340	0.0975	1.8	-0.087	-0.000899	0.0955
34	BTN2A1 (butyrophilin subfamily 2 member A1)	SID363997780	-0.32	2.2	-0.432	-0.137	-0.47
35	BTN2A1 (butyrophilin subfamily 2 member A1)	SID363997780	-0.438	1.66	-0.371	-0.505	-0.266

Reprinted from the listing, 6 entries:
no.	gene symbol	PubChem SID	mean correlation with KSR1 profile	mean distance from KSR1 profile	KSR1 correlation, replicate 1	KSR1 correlation, replicate 2	KSR1 correlation, replicate 3
2	TPSD1 (tryptase delta 1)	SID363998149	-0.615	1.87	-0.556	-0.646	-0.436
3	KCNJ11 (potassium inwardly rectifying channel subfamily J member 11)	SID363991848	0.189	1.38	0.224	0.307	0.211
4	PIM1 (Pim-1 proto-oncogene, serine/threonine kinase)	SID363993816	0.481	2.03	0.468	0.627	0.416
5	WT1-AS (WT1 antisense RNA)	SID363999681	0.575	3.19	0.686	0.0153	0.496
6	SZT2 (SZT2 subunit of KICSTOR complex)	SID363999396	-0.249	2.5	-0.215	-0.382	-0.0545
7	TBC1D3F (TBC1 domain family member 3F)	SID364003853	0.655	1.44	0.529	0.616	0.837
